Test results published in article doi:10.1101/2024.11.03.621741.
For at least one entry, the source does not settle the construct or the ends of the probe. At least one verdict was read from the data and is not stated in words by the source.

Experiments:
yeast Ku (yeast) = assay: EMSA; settings: positive control for dsDNA binding; recombinant protein
RPA heterotrimer (human) = assay: EMSA; settings: positive control for ssDNA binding

TGGGTCAACGTGGGCAAAGATGTCCTAGCAATGTAATCGTCTATGACGTT (double strand) [PC1253/PC1253c dsDNA]
binding result (yeast Ku (yeast)): binds

TGGGTCAACGTGGGCAAAGATGTCCTAGCAATGTAATCGTCTATGACGTT [PC1253 ssDNA]
binding result (RPA heterotrimer (human)): binds
